Results are given in words; binding and its absence hold for the method and conditions named. In cells and extracts the contact can be indirect. Some entries that bind do so weakly or less than the wild type.
How the values were obtained:
Assay in all cases: co-IP
[1] = biological target: T1, GGA1 (Golgi-associated, γ-adaptin ear-containing, ARF-binding protein 1) (human (endogenous in GIST-T1 and leukemia cells)), Q9UJY5; details: remark: other sources report otherwise
T1 chain: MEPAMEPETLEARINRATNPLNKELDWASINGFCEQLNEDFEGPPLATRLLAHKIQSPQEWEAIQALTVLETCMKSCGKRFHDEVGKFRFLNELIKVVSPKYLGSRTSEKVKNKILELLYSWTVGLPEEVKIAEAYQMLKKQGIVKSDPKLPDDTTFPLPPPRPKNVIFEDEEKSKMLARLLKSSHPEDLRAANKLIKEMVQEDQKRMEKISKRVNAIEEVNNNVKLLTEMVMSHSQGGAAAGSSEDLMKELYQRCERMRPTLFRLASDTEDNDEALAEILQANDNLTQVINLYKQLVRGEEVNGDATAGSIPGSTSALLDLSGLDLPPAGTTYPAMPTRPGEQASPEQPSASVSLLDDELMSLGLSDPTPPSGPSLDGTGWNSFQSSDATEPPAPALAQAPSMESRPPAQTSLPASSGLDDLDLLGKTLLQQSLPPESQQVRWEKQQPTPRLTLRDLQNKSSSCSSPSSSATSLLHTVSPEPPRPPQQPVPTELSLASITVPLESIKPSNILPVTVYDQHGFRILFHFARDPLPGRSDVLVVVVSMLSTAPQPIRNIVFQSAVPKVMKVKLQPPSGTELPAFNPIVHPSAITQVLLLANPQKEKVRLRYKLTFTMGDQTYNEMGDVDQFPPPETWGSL

Amino acid sequences for entries named in this document (tags omitted). Residues count along the entry.
UniProt P10721, residues 26-976: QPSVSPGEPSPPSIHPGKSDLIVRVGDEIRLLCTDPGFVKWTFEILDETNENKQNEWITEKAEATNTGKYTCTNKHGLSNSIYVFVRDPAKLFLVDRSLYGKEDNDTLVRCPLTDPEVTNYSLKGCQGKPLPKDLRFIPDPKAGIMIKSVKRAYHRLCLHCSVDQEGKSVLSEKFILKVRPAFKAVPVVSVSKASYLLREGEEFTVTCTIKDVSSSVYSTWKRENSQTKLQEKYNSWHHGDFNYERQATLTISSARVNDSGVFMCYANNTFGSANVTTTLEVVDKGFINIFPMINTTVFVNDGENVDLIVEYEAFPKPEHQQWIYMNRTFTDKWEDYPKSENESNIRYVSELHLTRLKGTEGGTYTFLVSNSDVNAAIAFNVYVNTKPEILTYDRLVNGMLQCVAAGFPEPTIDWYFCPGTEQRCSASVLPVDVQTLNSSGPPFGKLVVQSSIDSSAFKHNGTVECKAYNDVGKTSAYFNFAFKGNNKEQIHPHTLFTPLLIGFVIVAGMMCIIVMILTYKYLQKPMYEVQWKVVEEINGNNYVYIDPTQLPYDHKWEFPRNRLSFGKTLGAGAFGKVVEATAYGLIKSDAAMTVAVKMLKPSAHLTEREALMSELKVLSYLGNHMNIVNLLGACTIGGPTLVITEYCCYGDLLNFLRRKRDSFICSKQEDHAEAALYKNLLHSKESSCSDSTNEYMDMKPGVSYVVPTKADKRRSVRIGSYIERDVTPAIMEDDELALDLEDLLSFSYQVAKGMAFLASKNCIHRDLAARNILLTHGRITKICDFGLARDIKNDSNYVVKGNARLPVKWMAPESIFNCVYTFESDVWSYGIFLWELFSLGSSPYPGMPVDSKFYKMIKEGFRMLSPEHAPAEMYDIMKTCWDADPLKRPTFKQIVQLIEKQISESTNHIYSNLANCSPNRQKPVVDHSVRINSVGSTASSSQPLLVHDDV

[2] = biological target: T1, GGA1 (Golgi-associated, γ-adaptin …); details: remark: other sources report otherwise
[3] = biological target: wild-type KIT of M-07e cells (acute megakaryoblastic leukemia) (human (endogenous in M-07e)) (UniProt P10721)

Row | Binder | binding [1] | binding [2] | binding [3]
1 | γ-adaptin (AP1 component), O43747 1-822 (protein) MPAPIRLRELIRTIRTARTQAEEREMIQKECAAIRSSFREEDNTYRCRNVAKLLYMHMLGYPAHFGQLECLKLIASQKFTDKRIGYLGAMLLLDERQDVHLLMTNCIKNDLNHSTQFVQGLALCTLGCMGSSEMCRDLAGEVEKLLKTSNSYLRKKAALCAVHVIRKVPELMEMFLPATKNLLNEKNHGVLHTSVVLLTEMCERSPDMLAHFRKLVPQLVRILKNLIMSGYSPEHDVSGISDPFLQVRILRLLRILGRNDDDSSEAMNDILAQVATNTETSKNVGNAILYETVLTIMDIKSESGLRVLAINILGRFLLNNDKNIRYVALTSLLKTVQTDHNAVQRHRSTIVDCLKDLDVSIKRRAMELSFALVNGNNIRGMMKELLYFLDSCEPEFKADCASGIFLAAEKYAPSKRWHIDTIMRVLTTAGSYVRDDAVPNLIQLITNSVEMHAYTVQRLYKAILGDYSQQPLVQVAAWCIGEYGDLLVSGQCEEEEPIQVTEDEVLDILESVLISNMSTSVTRGYALTAIMKLSTRFTCTVNRIKKVVSIYGSSIDVELQQRAVEYNALFKKYDHMRSALLERMPVMEKVTTNGPTEIVQTNGETEPAPLETKPPPSGPQPTSQANDLLDLLGGNDITPVIPTAPTSKPSSAGGELLDLLGDINLTGAPAAAPAPASVPQISQPPFLLDGLSSQPLFNDIAAGIPSITAYSKNGLKIEFTFERSNTNPSVTVITIQASNSTELDMTDFVFQAAVPKTFQLQLLSPSSSIVPAFNTGTITQVIKVLNPQKQQLRMRIKLTYNHKGSAMQDLAEVNNFPPQSWQ | binds | binds | –
2 | protein kinase D2 (PKD2) (enzyme, UniProt Q9BZL6 1-878) MATAPSYPAGLPGSPGPGSPPPPGGLELQSPPPLLPQIPAPGSGVSFHIQIGLTREFVLLPAASELAHVKQLACSIVDQKFPECGFYGLYDKILLFKHDPTSANLLQLVRSSGDIQEGDLVEVVLSASATFEDFQIRPHALTVHSYRAPAFCDHCGEMLFGLVRQGLKCDGCGLNYHKRCAFSIPNNCSGARKRRLSSTSLASGHSVRLGTSESLPCTAEELSRSTTELLPRRPPSSSSSSSASSYTGRPIELDKMLLSKVKVPHTFLIHSYTRPTVCQACKKLLKGLFRQGLQCKDCKFNCHKRCATRVPNDCLGEALINGDVPMEEATDFSEADKSALMDESEDSGVIPGSHSENALHASEEEEGEGGKAQSSLGYIPLMRVVQSVRHTTRKSSTTLREGWVVHYSNKDTLRKRHYWRLDCKCITLFQNNTTNRYYKEIPLSEILTVESAQNFSLVPPGTNPHCFEIVTANATYFVGEMPGGTPGGPSGQGAEAARGWETAIRQALMPVILQDAPSAPGHAPHRQASLSISVSNSQIQENVDIATVYQIFPDEVLGSGQFGVVYGGKHRKTGRDVAVKVIDKLRFPTKQESQLRNEVAILQSLRHPGIVNLECMFETPEKVFVVMEKLHGDMLEMILSSEKGRLPERLTKFLITQILVALRHLHFKNIVHCDLKPENVLLASADPFPQVKLCDFGFARIIGEKSFRRSVVGTPAYLAPEVLLNQGYNRSLDMWSVGVIMYVSLSGTFPFNEDEDINDQIQNAAFMYPASPWSHISAGAIDLINNLLQVKMRKRYSVDKSLSHPWLQEYQTWLDLRELEGKMGERYITHESDDARWEQFAAEHPLPGSGLPTDRDLGGACPPQDHDMQGLAERISVL | – | – | no binding

Reference: article doi:10.1101/2022.12.19.520889
